Assay results as given in PMC10897158.

Amino acid sequences for entries named in this document (tags omitted). A change or cut given only in a name is not applied to a line headed by its entry.
UniProt Q99453: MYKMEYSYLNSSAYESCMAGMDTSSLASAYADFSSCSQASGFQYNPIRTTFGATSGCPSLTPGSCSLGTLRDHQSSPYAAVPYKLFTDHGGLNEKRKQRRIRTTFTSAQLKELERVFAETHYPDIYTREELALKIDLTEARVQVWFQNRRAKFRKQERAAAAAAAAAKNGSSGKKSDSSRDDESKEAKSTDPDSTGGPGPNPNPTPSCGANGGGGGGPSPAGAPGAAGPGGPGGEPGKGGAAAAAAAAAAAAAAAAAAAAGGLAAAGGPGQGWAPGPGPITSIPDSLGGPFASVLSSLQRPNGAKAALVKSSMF
UniProt Q13950: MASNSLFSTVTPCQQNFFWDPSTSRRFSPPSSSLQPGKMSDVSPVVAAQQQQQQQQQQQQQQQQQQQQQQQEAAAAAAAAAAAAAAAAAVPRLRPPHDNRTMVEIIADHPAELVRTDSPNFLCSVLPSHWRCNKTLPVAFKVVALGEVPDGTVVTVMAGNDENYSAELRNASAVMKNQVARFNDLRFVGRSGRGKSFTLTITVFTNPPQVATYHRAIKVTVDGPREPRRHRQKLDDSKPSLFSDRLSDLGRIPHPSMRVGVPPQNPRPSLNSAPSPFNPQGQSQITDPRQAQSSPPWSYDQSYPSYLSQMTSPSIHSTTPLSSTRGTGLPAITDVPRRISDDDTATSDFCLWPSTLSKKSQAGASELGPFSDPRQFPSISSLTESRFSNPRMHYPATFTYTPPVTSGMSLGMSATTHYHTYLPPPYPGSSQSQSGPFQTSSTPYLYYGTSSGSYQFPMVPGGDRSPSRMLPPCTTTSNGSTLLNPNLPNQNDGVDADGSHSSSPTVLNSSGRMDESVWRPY
UniProt P70217: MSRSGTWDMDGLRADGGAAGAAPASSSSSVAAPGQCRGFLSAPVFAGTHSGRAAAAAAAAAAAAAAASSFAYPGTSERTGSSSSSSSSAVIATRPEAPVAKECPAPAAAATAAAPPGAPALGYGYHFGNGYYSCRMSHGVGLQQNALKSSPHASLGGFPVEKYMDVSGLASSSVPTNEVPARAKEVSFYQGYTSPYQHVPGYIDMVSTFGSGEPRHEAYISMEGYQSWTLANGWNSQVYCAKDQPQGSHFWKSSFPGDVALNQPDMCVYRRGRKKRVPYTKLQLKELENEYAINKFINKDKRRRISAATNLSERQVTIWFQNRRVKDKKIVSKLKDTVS

Legend:
[1] = biological target: T1, HA-tagged UBA6 wild type (pcDNA3.1-HA-UBA6) (UniProt A0AVT1); assay: pull-down; lysates of HEK293T cells expressing HA-UBA6 and FLAG-USE1 incubated with recombinant TIG-mutant PHOX2B; anti-HA beads pull down UBA6, beads only as control; only the binder purified
T1 sequence: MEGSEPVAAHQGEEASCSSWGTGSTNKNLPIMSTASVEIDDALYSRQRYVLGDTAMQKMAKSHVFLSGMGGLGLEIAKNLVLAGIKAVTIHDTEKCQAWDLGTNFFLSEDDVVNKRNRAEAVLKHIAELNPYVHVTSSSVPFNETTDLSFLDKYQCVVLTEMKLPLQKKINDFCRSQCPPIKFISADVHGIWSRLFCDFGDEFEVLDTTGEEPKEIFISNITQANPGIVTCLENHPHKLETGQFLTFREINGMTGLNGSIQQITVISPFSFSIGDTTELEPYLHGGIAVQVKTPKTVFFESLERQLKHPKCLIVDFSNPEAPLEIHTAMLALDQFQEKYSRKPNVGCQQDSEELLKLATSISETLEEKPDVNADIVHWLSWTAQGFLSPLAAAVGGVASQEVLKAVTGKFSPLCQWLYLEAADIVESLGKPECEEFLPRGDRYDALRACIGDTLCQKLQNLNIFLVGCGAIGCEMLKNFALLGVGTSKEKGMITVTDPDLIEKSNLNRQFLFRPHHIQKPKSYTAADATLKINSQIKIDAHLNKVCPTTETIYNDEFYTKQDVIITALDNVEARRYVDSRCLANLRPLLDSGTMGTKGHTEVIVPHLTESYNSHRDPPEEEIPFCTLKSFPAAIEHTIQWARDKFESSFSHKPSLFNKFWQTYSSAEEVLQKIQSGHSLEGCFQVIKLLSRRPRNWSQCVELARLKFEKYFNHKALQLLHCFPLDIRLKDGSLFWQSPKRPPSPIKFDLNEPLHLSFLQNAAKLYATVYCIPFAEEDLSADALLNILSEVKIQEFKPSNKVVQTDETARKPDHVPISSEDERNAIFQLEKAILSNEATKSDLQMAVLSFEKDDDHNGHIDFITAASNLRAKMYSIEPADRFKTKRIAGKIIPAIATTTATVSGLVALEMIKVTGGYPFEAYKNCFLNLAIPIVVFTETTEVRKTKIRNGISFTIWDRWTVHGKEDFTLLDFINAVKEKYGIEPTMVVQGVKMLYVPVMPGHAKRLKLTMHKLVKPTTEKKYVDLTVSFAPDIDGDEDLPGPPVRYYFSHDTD

[2] = biological target: T2, E1 ubiquitin-activating enzyme UBA6 (endogenous) (human (endogenous in HEK293T, human fibroblasts and iPSC-derived neurons)) (UniProt A0AVT1); assay: co-IP; cytoplasmic fraction (GAPDH enriched, IP buffer with 0.1% NP40) of transfected HEK293T cells; immunoprecipitation of endogenous UBA6, unrelated IgG as control; blot with anti-HA
T2 sequence: T1 sequence

[3] = biological target: T2, E1 ubiquitin-activating enzyme UBA6 (endogenous) (human (endogenous in HEK293T, human fibroblasts and iPSC-derived neurons)); assay: co-IP; nuclear fraction (LaminB1 enriched) of transfected HEK293T cells; immunoprecipitation of endogenous UBA6, unrelated IgG as control; blot with anti-HA
[4] = biological target: T2, E1 ubiquitin-activating enzyme UBA6 (endogenous) (human (endogenous in HEK293T, human fibroblasts and iPSC-derived neurons)); assay: co-IP; whole-cell lysates of transfected HEK293T cells; immunoprecipitation of endogenous UBA6 with anti-UBA6; IP buffer 20 mM Tris-HCl pH 7.2, 150 mM NaCl, 2 mM MgCl2, 0.5% NP-40; pre-clearing with beads for isolated polyalanine stretches

| Substance | binding [1] | binding [2] | binding [3] | binding [4] |
| --- | --- | --- | --- | --- |
| recombinant TIG-mutant PHOX2B (+13 Ala) (from UniProt Q99453) | binds |  |  |  |
| HA-mutant PABPN1 (+7 Ala) (bovine (humanized)) |  | binds | no binding (only in the nuclear fraction) | binds |
| HA-mutant PHOX2B (+13Ala) (from UniProt Q99453) |  | binds | no binding (only in the nuclear fraction) | binds |
| HA-mutant RUNX2 (+12Ala) (from UniProt Q13950) |  | binds | no binding (only in the nuclear fraction) | binds |
| mutant RUNX2 (+6Ala), HA-tagged (from UniProt Q13950) |  |  |  | binds |
| HA-mutant HOXD13 (+10Ala) (from UniProt P70217) |  | binds | no binding (only in the nuclear fraction) | binds |

Results are given in words; binding and its absence hold for the method and conditions named. In cells and extracts the contact can be indirect. For some assays here: Binding calls can cover weak binding; strength is not graded here. For some assays here: Tags and fused reporters may be left off the sequences shown.
